Experimental data: PubChem BioAssay AID504764 (Drosophila RNAi Screening Center, 2011)

Test: 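Genome-wide screen for regulators of Notch-driven gene expression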 (primary screen)
System: Drosophila Kc167 cells
Reagent: long dsRNA against Drosophila genes
Duration: about 5 days (4 days dsRNA, then 24 h after transfection)
Treatment: transfection of constitutively active membrane-tethered Notch lacking the extracellular domain, read 24 h later
Detection: 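Firefly luciferase from an E(spl)m3 reporter with active Notch, plus control-promoter and uninduced reporter wells for normalisation; unnormalised counts, duplicate wells a and b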
Scale: induced reporter light, run 1, well a and induced reporter light, run 1, well b: higher = more light from the Notch target reporter with active Notch; control promoter light, run 1, well a and control promoter light, run 1, well b: higher = more light from the viral control promoter (cell number, transfection, viability); uninduced reporter light, run 1, well a: higher = more light from the Notch target reporter without active Notch
Active means: 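Wells with low control signal or poorly matching duplicates excluded; duplicates averaged; per source plate, z beyond ±2 for induced/control log2 ratio or beyond ±1.8 for induced/uninduced marks a hit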
Meaning of the calls: active = modifier hit (raised or lowered Notch signal); inactive = not a hit
The screen tested about 22,000 reagents; shown is an unselected part of those with a known target gene and a result. Of all reagents, 403 (1.9%) are marked active. 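Unnormalised raw counts per well; ratio z-scores behind the hit calls and whether each hit raises or lowers signal are not deposited.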 A plus sign joins genes that one reagent is predicted to hit. Not given: the amount of reagent.

no.	Gene	dsRNA	induced reporter light, run 1, well a	induced reporter light, run 1, well b	control promoter light, run 1, well a	control promoter light, run 1, well b	uninduced reporter light, run 1, well a	outcome
1	Nup58	DRSC16235	1.51e5	1.49e5	1.82e5	1.59e5	12300	inactive
2	CG12853	DRSC06193	1.02e5	98265	1.36e5	1.41e5	7245	inactive
3	Fancm	DRSC16348	1.09e5	1.83e5	2.15e5	2.67e5	12625	inactive
4	Blm + CG14721	DRSC14943	62260	96900	66215	49750	2855	inactive
5	CG3604	DRSC00618	1.81e5	1.50e5	2.18e5	2.09e5	12660	inactive
6	CG10474	DRSC05993	34890	29815	34860	35640	3800	inactive
7	mute	DRSC06562	60565	78545	1.05e5	1.21e5	7495	inactive
8	CG4374	DRSC15570	1.86e5	2.04e5	2.11e5	2.25e5	13750	inactive
9	Nadk1a	DRSC05431	1.94e5	1.93e5	2.12e5	2.60e5	16080	inactive
10	Nadk1a	DRSC06963	1.71e5	1.41e5	1.59e5	1.61e5	12282	inactive
11	O-fut2	DRSC18608	1.66e5	1.72e5	2.32e5	2.09e5	11195	inactive
12	18w	DRSC05029	1.06e5	1.32e5	1.97e5	2.19e5	9405	inactive
13	UGP	DRSC10411	1.21e5	91750	71385	32585	9440	inactive

An excerpt from above, showing only “induced reporter light, run 1, well a”:
CG3604 [DRSC00618]	1.81e5
CG10474 [DRSC05993]	34890

Continued.
no.	Gene	dsRNA	induced reporter light, run 1, well a	induced reporter light, run 1, well b	control promoter light, run 1, well a	control promoter light, run 1, well b	uninduced reporter light, run 1, well a	outcome
14	CG17571	DRSC01768	67060	74990	64640	67775	7250	inactive
15	CG17571	DRSC03755	42090	40785	41130	32125	2795	inactive
16	Tpst	DRSC18989	1.12e5	1.23e5	1.14e5	1.12e5	10305	inactive
17	Tpst	DRSC19696	56540	66580	71655	84515	5680	inactive
18	Tpst	DRSC19723	1.17e5	90765	1.33e5	1.70e5	8670	inactive
19	Tpst	DRSC19724	12805	13355	11660	12615	4020	inactive
20	Tpst	DRSC22621						inactive
